How the values were obtained:
[1] = heat activated transfer of image dye (yellow coupler Y-1, developer CD-2) through gelatin interlayer to polymeric dye receiver, Status A blue density; conditions: coupler Y-1, CD-2; for Obs. Blue Density, Integral: integral film; for Obs. Blue Density, Receiver 0-pass: receiver without thermal processing; for Obs. Blue Density, Receiver 3-pass: 3 passes
Procedure: Heat Activated Image Transfer. Dried integral films are laminated with gelatin subbed ESTAR™ film base and passed through a set of heated rollers at 0.635 cm./sec. with roller surface temperatures of 110° C. and a pressure of 140 kPa. The two film bases are separated; the gelatin layers adhere to the gelatin subbed ESTAR™ base and are thus separated from the polymeric dye receiver layer and its support. Status A reflection densitometry is obtained on the polymeric dye-receiver layer coated on a reflective support. These density values determined with the appropriate Status A filter are given in Example 1 in Table III.
Thermal Solvent Test Employing a Yellow Dye Forming Coupler. Three film examples are prepared in a manner analogous to examples 1 and 2 above, using a yellow dye forming coupler, Y-1, and a blue sensitized cubic emulsion in place of M-1 and a green sensitized emulsion, respectively. In this example TS-1 is compared with no added hydroxybenzene compound and with a hydroxybenzene without a hydrogen bond accepting functional group (CS-1). The thermal solvent [drawing 8] test layer is coated at gelatin laydown of 1.40 g/m^2 and a thermal solvent test compound at 1.30 g/m^2. The dye generating layer is coated at 1.40 g/m^2 of gelatin, 0.53 g/m^2 of coupler Y-1 and 0.38 g/m^2 of Ag. The photographic development and thermal processing is as described in example 2. In these examples the gelatin layers of the integral developed films are removed from the dye receiver layer prior to thermal processing by strippping with adhesive films. These film samples, free of the dye generating gelatin layers, are referred to as 0-pass receivers and illustrate the dye density transfer that occurs in the treatment steps prior to thermal treatment. The original or integral DlogE scales of both example films are similar.
The films described above in examples 12-14 are exposed and processed in a developer solution in which an equimolar change of the color developer is made from CD-3 to CD-2. All other components in the developer solution are unchanged in identity and concentration except as required to adjust the pH of the developer solution. After image development these films are dried and thermally processed as described in examples 12 through 14. […] Comparative compound CS-1, a hydroxybenzene without a hydrogen bond accepting functional group, transfers less than 4% of the integral dye density to the receiver layer.

[2] = heat activated transfer of image dye (coupler M-1, developer CD-3) through gelatin interlayer to polymeric dye receiver, Status A green density; conditions: for net image density in the polymeric dye-receiver layer (green): step with integral density 2.11, CD-3; for Obs. Green Density, 1-pass Rec / Obs. Green Density, 3-pass Rec: coupler M-1, CD-3, receiver, rollers 110° C.; for Obs. Green Density, 3-pass Rec: 3 passes; for Obs. Green Density, Integral: coupler M-1, CD-3 developer, integral film before transfer
Procedure: The following 17 examples are prepared to examine the ability of materials to effect the transfer of image dye through intervening layers of gelatin binder into a polymeric dye receiver layer and are described by the coating format shown in FIG. 2. The first layer (FIG. 2, layer 14) contains gelatin binder and the material to be tested as a thermal solvent while the upper layer (FIG. 2, layer 16) contains the image generating chemistry comprising a silver chloride emulsion and a dispersion of a dye generating coupler in a gelatin binder. A third, protective overcoat, layer (FIG. 2, layer 15) containing gelatin and hardener is applied over the first two gelatin test layers.
Examples 1 and 2 describe in detail the preparation of the solutions and dispersions used in these examples. Examples 3 and 4 describe the same film samples processed in a second developer. Example 1 contains no added material in the first gelatin layer. Example 2 is an example of a compound of our invention according to formula I.
Gelatin Interlayer Melt Preparation. This is an interlayer consisting of only gelatin that serves as a control for comparison of the effect of added materials on transfer of heat-transferable dyes through gelatin layers. To 2.4 g of ethyl acetate is added, with stirring, a warm solution consisting of 28.8 g of melted and filtered 12.5% gelatin and 4.3 g of a 10% solution of surfactant-A (Alkanol XC™, DuPont) in 54.5 g of distilled water. This mixture is dispersed by three passes through a Gaulin Dispersion Mill set at a gap of 0.125 mm. To 60 g of this dispersion is added 1.5 g of a 10% solution of surfactant-B (Active Olin 10G™), 63.7 g of distilled water and 4.8 g of melted and filtered 12.5% gelatin to prepare a coating melt. [drawing 6]
Dispersion Melt Preparation. To a warmed mixture of 8.064 g of coupler M-1 and 24.50 g of ethyl acetate is added, with stirring, a warmed solution of 134.4 g of 12.5% gelatin in 236.2 g of distilled water and 16.8 g of a 10% solution of surfactant-A. This mixture is dispersed by three passes through a Gaulin Dispersion Mill with a gap of 0.125 mm. To 337.5 g of this dispersion is added 8.10 g of a 10% solution of surfactant-B, 489.6 g of distilled water and 64.8 g of 12.5% gelatin.
Emulsion Melt Preparation. To 84.2 g of an undoctored AgCl cubic emulsion spectrally sensitized with a green sensitizing dye is added 53.3 g of 12.5% gelatin and 474 g of distilled water. The resulting melt has a silver content of 16.0 g of silver per kg of melt.
Protective Overcoat Melt Preparation. To 1840 g of distilled water is added 384 g of melted 12.5% gelatin and 36 g of a 10% solution of surfactant-B. Within one minute of coating the protective overcoat 140 g of a 1.8% solution of the hardening agent, bis-(vinylsulfonyl)methane, is added.
Film Formation. The thermal solvent dispersion is coated on the corona discharge treated polymeric receiver layer paper base at an aim laydown of 1.60 g/m^2 for the gelatin. This paper base (Kodak Thermal Print Receiver NS Paper) consists essentially of a polycarbonate layer overcoated with a polycaprolactam layer on a titanium dioxide tinted paper. Over the first gelatin layer is coated the silver halide emulsion and chromogenic image generating layer as follows: 30 g of the emulsion melt described above is added to 100 g of the coupler dispersion melt. This image dye generating layer has an aim laydown of 1.60 g of gelatin per m^2, 0.26 g of silver per m^2 and 0.38 g of coupler per m^2. After overcoating with the protective overcoat/hardener layer with an aim laydown of 1.08 g gelatin per m^2 and at a level of 1.35% hardener relative to total gelatin, the coating is stored for 4 days prior to processing.
Photographic Processing. Several examples of each of film example 1 are individually exposed on a Kodak 1-B sensitometer with a 0.01 sec white light exposure through a HA-50 infrared filter and a 21 step 0 to 3.0 density step tablet. […]

[3] = heat activated transfer of image dye (coupler M-1, developer CD-2) through gelatin interlayer to polymeric dye receiver, Status A green density; conditions: for Obs. Green Density, 1-pass Rec / Obs. Green Density, 3-pass Rec: coupler M-1, CD-2, receiver, rollers 110° C.; for Obs. Green Density, 3-pass Rec: 3 passes; for Obs. Green Density, Integral: coupler M-1, CD-2 developer, integral film before transfer

| Compound | Obs. Blue Density, Integral [1] | Obs. Blue Density, Receiver 0-pass [1] | Obs. Blue Density, Receiver 1-pass [1] | Obs. Blue Density, Receiver 3-pass [1] | net image density in the polymeric dye-receiver layer (green) ([2]; 1-pass) | net image density in the polymeric dye-receiver layer (green) ([2]; 3-pass) | Obs. Green Density, 1-pass Rec [2] | Obs. Green Density, 3-pass Rec [2] | Obs. Green Density, Integral [2] | Obs. Green Density, 1-pass Rec [3] | Obs. Green Density, 3-pass Rec [3] | Obs. Green Density, Integral [3] |
| --- | --- | --- | --- | --- | --- | --- | --- | --- | --- | --- | --- | --- |
| CCCCCCCCCCCCc1ccc(O)cc1 [CS-1] | 2.07 | 0.081 | 0.079 | 0.089 | – | – | – | – | – | – | – | – |
| CCCCCCCCCCS(=O)(=O)c1ccc(O)cc1 [TS-1, 4-n-Decylsulfonylphenol] | 2.06 | 0.127 | 0.986 | 1.389 | 0.93 | 1.45 | 0.980 | 1.495 | 2.11 | 1.265 | 1.439 | 2.11 |
| CCCCCCCCSc1ccc(O)cc1 [TS-5] | – | – | – | – | – | – | 0.112 | 0.094 | 2.18 | 0.212 | 0.390 | 1.93 |
| CCCCCCCCCOc1ccc(O)cc1 [TS-6] | – | – | – | – | – | – | 0.230 | 0.410 | 2.20 | – | – | – |

Reference: patent US5468587A, “Hydrogen bond accepting groups on thermal solvents for image separation systems” (Eastman Kodak Company, priority 1993, dated 1995)
